# Experimental data reported in PubChem BioAssay AID1671190 (National Center for Advancing Translational Sciences (NCATS), 2021).
# The chains behind the UniProt entries cited, without tags or fusion partners.
# UniProt P18054, whole entry, looked up: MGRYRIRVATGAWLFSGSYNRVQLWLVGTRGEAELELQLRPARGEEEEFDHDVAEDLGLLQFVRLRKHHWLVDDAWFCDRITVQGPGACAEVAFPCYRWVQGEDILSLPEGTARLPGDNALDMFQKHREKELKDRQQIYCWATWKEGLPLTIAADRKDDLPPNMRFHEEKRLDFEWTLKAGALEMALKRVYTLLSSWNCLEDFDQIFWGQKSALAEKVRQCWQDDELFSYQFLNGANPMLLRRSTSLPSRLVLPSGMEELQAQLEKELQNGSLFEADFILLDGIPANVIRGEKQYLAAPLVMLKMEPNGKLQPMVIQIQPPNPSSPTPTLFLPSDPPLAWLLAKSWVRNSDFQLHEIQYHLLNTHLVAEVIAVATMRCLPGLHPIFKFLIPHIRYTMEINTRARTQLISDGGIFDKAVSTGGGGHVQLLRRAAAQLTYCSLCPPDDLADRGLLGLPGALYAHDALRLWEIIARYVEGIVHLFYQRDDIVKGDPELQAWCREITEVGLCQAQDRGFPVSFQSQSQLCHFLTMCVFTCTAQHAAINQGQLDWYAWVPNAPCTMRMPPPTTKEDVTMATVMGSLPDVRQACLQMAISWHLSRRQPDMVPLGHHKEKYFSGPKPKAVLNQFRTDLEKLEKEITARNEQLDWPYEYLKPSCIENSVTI
# About 6,100 (1.1%) of roughly 580,000 compounds were called active. The shares of active, inactive and inconclusive entries below differ from those in the screen. Calls follow the shape of the dose curve; as a rule, active = well fitted inhibition curve with a large enough effect; inconclusive = small, poorly fitted or top-dose-only effect, or another doubt; inactive = no such curve, though single readings can be large or run the other way. Potencies of inconclusive entries are doubtful fits and often do not repeat.
# Target: Polyunsaturated fatty acid lipoxygenase ALOX12 (Homo sapiens) (UniProt P18054)
# Experiment: Primary qHTS assay for inhibitors of human arachidonate 12S-lipoxygenase (ALOX12): Round 2
# Conditions: purified 12hLO, xylenol orange hydroperoxide absorbance; activity change, negative = inhibition: at 108 µM (top of the series) unless noted
# Procedure, shortened: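 Purified human 12hLO (150 nM final) in 25 mM Hepes, 0.01% Triton X-100, pH 7.0 was preincubated 15 min at room temperature with compound. Then 40 uM arachidonic acid was added, 30 min. Hydroperoxide was read by Fe-XO absorbance ratio 573/405 nm.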
# % is scaled to controls: 0 for no effect and ±100 for the full control effect; potency is read from the fitted curve at half-maximal effect.
SMILES,Potency,"activity change, negative = inhibition"
Cc1ccc(OCc2nc(C#N)c(NCc3ccco3)o2)cc1,"inconclusive: 35.5 µM [inhibitor, partial curve, poor fit]",
Cc1ccc(S(=O)(=O)CCC(=O)OCC(=O)NC(C)C(C)C)cc1 (stereo not given),"inconclusive: 50.1 µM [inhibitor, partial curve, poor fit]",
Cc1ccccc1N1C(=O)CC(N2CCN(C(=O)c3ccco3)CC2)C1=O (stereo not given),"inconclusive: 11.2 µM [inhibitor, partial curve]",
O=C(c1ccoc1)N1CCCN(C2CCC3(CCNCC3)CC2)CC1,inactive,
O=C1/C(=C\c2ccc(O)cc2)SC(=S)N1Cc1ccccc1,"inconclusive: 28.2 µM [inhibitor, partial curve, poor fit]",
COc1cc(/C=N/Nc2nc(C)cc(C)n2)ccc1OC(=O)c1ccco1,inactive,
O=S1(=O)CC(N2CCCCC2)CN1Cc1cn(Cc2ccc(F)cc2)nn1 (stereo not given),,inconclusive: -33.2% [inhibitor]
Cc1csc(NC(=O)CCc2c(C)nn(C)c2C)n1,inactive,
CC1(C)CC(=O)C2=C(C1)OC(N)=C([N+](=O)[O-])C2c1ccc(C#N)s1 (stereo not given),inactive,
Cc1nnc(SCC(=O)NC(=O)NCCC(C)C)s1,inactive,
CCC(=O)n1nc(-c2ccco2)nc1SCc1ccccc1,"inconclusive: 31.6 µM [inhibitor, partial curve, poor fit]",
COc1ccc(NC(=O)Cn2ncc3c4ccccc4n(Cc4ccccc4)c3c2=O)cc1OC,"inconclusive: 100 µM [inhibitor, partial curve, poor fit]",
Cc1ccc(OCc2nc3c4c(ncn3n2)OC2=C(C(=O)CCC2)C4c2ccco2)cc1 (stereo not given),"inconclusive: 17.8 µM [inhibitor, partial curve]",
O=S1(=O)NC2(CCCN(CCc3ccccc3)C2)COc2ccccc21 (stereo not given),,inactive: 5.86% [at 6.33 µM]
Clc1ccc(-c2noc(CSc3nnc(-c4ccncc4)n3-c3ccccc3)n2)cc1,inactive,
COc1ccccc1-c1ncnn1-c1sc2c(c1C#N)CCCCC2,"inconclusive: 44.7 µM [inhibitor, partial curve, poor fit]",
CN1CC(=O)N(C2CCCNCC2)Cc2c(NCC3CC3)ncnc21 (stereo not given),"inconclusive: 2.82 µM [inhibitor, full curve]",
O=C(CN1CCN(c2ccccc2)CC1)N1CCc2[nH]c3ccccc3c2C1,"inconclusive: 31.6 µM [inhibitor, single point]",
CCC(C)Sc1ccc([C@@H]2[C@@H]3C(=O)N(CC)C(=O)[C@@H]3[C@]3(C(=O)OC)CCCCN23)cc1 (stereo not given in full),"inconclusive: 35.5 µM [inhibitor, partial curve]",
CCOC(=O)c1c(C)[nH]c(C(=O)COC(=O)CNS(=O)(=O)c2ccc(C)cc2)c1C,inactive,
O=C1OC(c2ccccc2)C(O)=C1c1ccccc1 (stereo not given),"inconclusive: 39.8 µM [inhibitor, partial curve, poor fit]",
O=[N+]([O-])c1cccc(-c2n[nH]c(=S)n2Cc2ccccc2)c1,"inconclusive: 50.1 µM [inhibitor, partial curve, poor fit]",

SMILES,Potency,"activity change, negative = inhibition"
CC1=C(C(=O)NCc2ccco2)C2(CCC(C)CC2)OC1=O (stereo not given),"inconclusive: 70.8 µM [inhibitor, partial curve, poor fit]",
COc1cccc(NC(=O)OCCN2CCN(Cc3ccccc3)CCC2=O)c1,"inconclusive: 44.7 µM [inhibitor, partial curve, poor fit]",
N#Cc1c(/N=C/c2cc3ccccc3s2)sc2c1CCC2,"inconclusive: 44.7 µM [inhibitor, partial curve, poor fit]",
O=c1oc2ccccc2c(O)c1Cc1cc(Cl)c2cccnc2c1O,inactive,
CS(=O)(=O)Oc1ccc2c(c1)O/C(=C\c1cccnc1)C2=O,"inconclusive: 50.1 µM [inhibitor, partial curve, poor fit]",
COc1ccc(-c2cc(-c3ccc4cn[nH]c4c3)cn3cncc23)cn1,"inconclusive: 28.2 µM [inhibitor, full curve, poor fit]",
Fc1ccc(NC2=NCCCCC2)cc1,inactive,
COc1ccccc1CNc1ncncc1-c1ccc(N(C)C)cc1,"inconclusive: 39.8 µM [inhibitor, partial curve, poor fit]",
Cc1cccc(C)c1CN1CCC2(Cc3ccccc3CNC2=O)C1 (stereo not given),"inconclusive: 11.2 µM [inhibitor, partial curve]",
CCOc1ccc(OCCSc2ccc(S(=O)(=O)N3CCN(C)CC3)cn2)cc1,"inconclusive: 100 µM [inhibitor, single point]",
CC1(c2ccccc2)N(Cc2ccccc2)C(=O)OC12CCN(C(=O)Cc1cccc(F)c1)CC2 (stereo not given),"inconclusive: 39.8 µM [inhibitor, partial curve, poor fit]",
COC(=O)c1ccc(NC(=O)C(c2ccccc2)N2Cc3ccccc3C2=O)cc1 (stereo not given),"inconclusive: 178 µM [inhibitor, single point]",
COc1cccc(NC(=O)CN(C)CC(=O)Nc2ccc(C)cc2)c1,"inconclusive: 1.58 µM [inhibitor, full curve, poor fit]",
COC(=O)C1=C(C)N(C)C(=O)N(C)C1c1cc(Br)ccc1F (stereo not given),"inconclusive: 3.55 µM [inhibitor, full curve, poor fit]",
CCCCn1nc(C(=O)Nc2cc(OC)c(OC)cc2C)c2ccccc2c1=O,"inconclusive: 10 µM [inhibitor, partial curve, poor fit]",
O=C(CCc1c[nH]c2ccccc12)Nc1cccc(Cl)c1,"inconclusive: 50.1 µM [inhibitor, partial curve, poor fit]",
COCCCNCCOCCOc1ccc(C)cc1[N+](=O)[O-],"inconclusive: 1.78 µM [inhibitor, full curve, poor fit]",
O=C(NC(c1ccccc1)c1ccccc1)C1CCCC1,inactive,
COc1cccc(NC(=O)C(NCC(C)(C)CN(C)C)c2ccccc2)c1 (stereo not given),"inconclusive: 0.398 µM [inhibitor, full curve, poor fit]",
O=C1CC2(CCN([S+](=O)([O-])c3cccc(C(F)(F)F)c3)CC2)Oc2ccccc2N1c1ccccc1,"inconclusive: 39.8 µM [inhibitor, partial curve, poor fit]",
C(=N\N=C(c1ccccc1)c1ccccc1)/c1c[nH]c2ccccc12,"inconclusive: 10 µM [inhibitor, full curve, poor fit]",
CC(C)c1ccc(O)c(NC(=S)NC(=O)c2ccc3c(c2)OCO3)c1,active: 12.6 µM,

# Rewritten with bars between the fields: 5 of the compounds above
SMILES | Potency | activity change, negative = inhibition
O=C(NC(c1ccccc1)c1ccccc1)C1CCCC1 | inactive | 
COc1cccc(NC(=O)C(NCC(C)(C)CN(C)C)c2ccccc2)c1 (stereo not given) | inconclusive: 0.398 µM [inhibitor, full curve, poor fit] | 
O=C1CC2(CCN([S+](=O)([O-])c3cccc(C(F)(F)F)c3)CC2)Oc2ccccc2N1c1ccccc1 | inconclusive: 39.8 µM [inhibitor, partial curve, poor fit] | 
C(=N\N=C(c1ccccc1)c1ccccc1)/c1c[nH]c2ccccc12 | inconclusive: 10 µM [inhibitor, full curve, poor fit] | 
CC(C)c1ccc(O)c(NC(=S)NC(=O)c2ccc3c(c2)OCO3)c1 | active: 12.6 µM | 

# (continued)

SMILES,Potency,"activity change, negative = inhibition"
CCOC(CCNC(=O)CCC(=O)Nc1ccc2nc(N3CCN(C)CC3)cc(C)c2c1)OCC,inactive,
CC(NC(=O)CC1C=CCC1)c1ccc2c(c1)CCCC2 (stereo not given),"inconclusive: 39.8 µM [inhibitor, partial curve]",
Cc1nc(SCc2nc3ccc(F)cc3[nH]2)c2oc3ccccc3c2n1,"inconclusive: 100 µM [inhibitor, partial curve, poor fit]",
O=C(CSc1nnc(-c2ccc(S(=O)(=O)N3CCCCCC3)cc2)o1)c1ccc(F)cc1,inactive,
O=C(CCn1nnc2ccccc21)N1CCc2c(ncnc2N2CCOCC2)C1,"inconclusive: 11.2 µM [inhibitor, full curve, poor fit]",
O=C1CCCC1C(=O)Nc1ccc2ccccc2c1 (stereo not given),"inconclusive: 56.2 µM [inhibitor, partial curve, poor fit]",
Cc1ccccc1CNC(=O)c1nccnc1N,"inconclusive: 1.41 µM [inhibitor, full curve, poor fit]",
Cc1ccc(C(=O)N/C(=C\c2ccccc2F)c2nc(=S)[nH][nH]2)cc1,"inconclusive: 50.1 µM [inhibitor, partial curve, poor fit]",
CCn1cnnc1CC1CCN(C(=O)NC)C1 (stereo not given),inactive,
COc1ccc2[nH]cc(CCNc3ncnc4ccc(-c5ccccc5OC)cc34)c2c1,inactive,
COc1cccc(NC(=O)N2CCOCC2)c1,"inconclusive: 0.891 µM [inhibitor, full curve, poor fit]",
O=C(Nc1cccc2ccccc12)c1ccc(Cn2cc(Cl)cn2)cc1,"inconclusive: 79.4 µM [inhibitor, partial curve, poor fit]",
O=C(CSc1nc2ccccc2c(=O)n1Cc1ccco1)NCc1ccco1,"inconclusive: 17.8 µM [inhibitor, full curve, poor fit]",
CC(C)(c1ccccc1)c1ccc(OCCN2CCCC2)cc1,"inconclusive: 0.447 µM [inhibitor, full curve, poor fit]",
Cn1c(CC(=O)Nc2ccc(Cl)c(Cl)c2)n[nH]c1=S,"inconclusive: 50.1 µM [inhibitor, partial curve, poor fit]",
O=C(CCn1cnc2sc3c(c2c1=O)CCCC3)NC1CCCC1,"inconclusive: 112 µM [inhibitor, partial curve, poor fit]",
COC(=O)c1ccc(C)c(NC(=O)Cn2c(C)csc2=O)c1,"inconclusive: 112 µM [inhibitor, single point]",
O=C(CSc1ncc(-c2ccc(Br)cc2)o1)NC1CCCCC1,inactive,
COc1ccc(C2=CC(c3cc(OC)c(OC)c(OC)c3)NC(=S)N2)cc1 (stereo not given),"inconclusive: 44.7 µM [inhibitor, partial curve, poor fit]",
CCOc1ccccc1Oc1c(C(F)(F)F)oc2cc(OC(=O)c3ccc(C)cc3)ccc2c1=O,inactive,
NC(CCc1ccccc1)c1csc(Nc2nccc(C(F)(F)F)n2)n1 (stereo not given),"inconclusive: 56.2 µM [inhibitor, single point]",
